Reference: the supplement of paper PMC8728848
The other results are listed elsewhere or left out.

How the values were obtained:
Assay in all cases: glycan array binding signal (z-score within array); higher = stronger binding
Conditions in all cases: glycan notation: IUPAC condensed, linker removed
GalNAc(b1-3)GalNAc = biological target: GalNAc(b1-3)GalNAc
Summary of the method: (§1)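 Glycan array data came from 3228 arrays in the Consortium for Functional Glycomics database, and only arrays with an available protein sequence were kept. Glycan names were put into IUPAC-condensed notation, and columns mapping to the same glycan were averaged. The binding signal is a within-array Z-score, averaged across arrays of one protein sequence run at different concentrations or buffers and across linkers. A negative Z-score can be read as non-binding.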

GalNAc(b1-4)GlcNAc = biological target: GalNAc(b1-4)GlcNAc
Summary of the method: as §1

Glc(a1-4)Glc = biological target: Glc(a1-4)Glc
Summary of the method: as §1

Glc(a1-6)Glc(a1-6)Glc = biological target: Glc(a1-6)Glc(a1-6)Glc
Summary of the method: as §1

Glc(b1-4)Glc = biological target: Glc(b1-4)Glc
Summary of the method: as §1

Glc(b1-6)Glc = biological target: Glc(b1-6)Glc
Summary of the method: as §1

GlcA(b1-3)Gal = biological target: GlcA(b1-3)Gal
Summary of the method: as §1

GlcA(b1-3)GlcNAc = biological target: GlcA(b1-3)GlcNAc
Summary of the method: as §1

GlcA(b1-6)Gal = biological target: GlcA(b1-6)Gal
Summary of the method: as §1

[1] = biological target: GlcNAc(a1-3)Gal(b1-4)GlcNAc
Summary of the method: as §1

[2] = biological target: GlcNAc(a1-6)Gal(b1-4)GlcNAc
Summary of the method: as §1

[3] = biological target: GlcNAc(b1-2)Gal(b1-3)GalNAc
Summary of the method: as §1

[4] = biological target: GlcNAc(b1-2)Man(a1-3)[GlcNAc(b1-2)Man(a1-6)]Man(b1-4)GlcNAc(b1-4)GlcNAc
Summary of the method: as §1

GlcNAc(b1-3)Gal = biological target: GlcNAc(b1-3)Gal
Summary of the method: as §1

[5] = biological target: GlcNAc(b1-3)Gal(b1-3)GalNAc
Summary of the method: as §1

GlcNAc(b1-3)Gal(b1-4)Glc = biological target: GlcNAc(b1-3)Gal(b1-4)Glc
Summary of the method: as §1

[6] = biological target: GlcNAc(b1-3)Gal(b1-4)GlcNAc
Summary of the method: as §1

[7] = biological target: GlcNAc(b1-3)Gal(b1-4)GlcNAc(b1-3)Gal(b1-4)GlcNAc
Summary of the method: as §1

GlcNAc(b1-3)GalNAc = biological target: GlcNAc(b1-3)GalNAc
Summary of the method: as §1

GlcNAc(b1-3)Man = biological target: GlcNAc(b1-3)Man
Summary of the method: as §1

[8] = biological target: GlcNAc(b1-3)[GlcNAc(b1-4)][GlcNAc(b1-6)]GlcNAc
Summary of the method: as §1

[9] = biological target: GlcNAc(b1-3)[GlcNAc(b1-6)]Gal(b1-4)GlcNAc
Summary of the method: as §1

[10] = biological target: GlcNAc(b1-3)[GlcNAc(b1-6)]GalNAc
Summary of the method: as §1

[11] = biological target: GlcNAc(b1-4)Gal(b1-4)GlcNAc
Summary of the method: as §1

GlcNAc(b1-4)GlcNAc = biological target: GlcNAc(b1-4)GlcNAc
Summary of the method: as §1

[12] = biological target: GlcNAc(b1-4)GlcNAc(b1-4)GlcNAc
Summary of the method: as §1

[13] = biological target: GlcNAc(b1-4)GlcNAc(b1-4)GlcNAc(b1-4)GlcNAc(b1-4)GlcNAc
Summary of the method: as §1

[14] = biological target: GlcNAc(b1-4)GlcNAc(b1-4)GlcNAc(b1-4)GlcNAc(b1-4)GlcNAc(b1-4)GlcNAc
Summary of the method: as §1

[15] = biological target: GlcNAc(b1-4)[GlcNAc(b1-6)]GalNAc
Summary of the method: as §1

[16] = biological target: GlcNAc(b1-6)Gal(b1-4)GlcNAc
Summary of the method: as §1

GlcNAc(b1-6)GalNAc = biological target: GlcNAc(b1-6)GalNAc
Summary of the method: as §1

GlcNAc3Prop(b1-4)GlcNAc = biological target: GlcNAc3Prop(b1-4)GlcNAc
Summary of the method: as §1

Kdn(a2-3)Gal(b1-3)GlcNAc = biological target: Kdn(a2-3)Gal(b1-3)GlcNAc
Summary of the method: as §1

Kdn(a2-3)Gal(b1-4)GlcNAc = biological target: Kdn(a2-3)Gal(b1-4)GlcNAc
Summary of the method: as §1

[17] = biological target: Man(a1-2)Man(a1-2)Man(a1-3)Man
Summary of the method: as §1

[18] = biological target: Man(a1-2)Man(a1-2)Man(a1-6)[Man(a1-3)]Man
Summary of the method: as §1

Man(a1-2)Man(a1-3)Man = biological target: Man(a1-2)Man(a1-3)Man
Summary of the method: as §1

[19] = biological target: Man(a1-2)Man(a1-3)[Man(a1-2)Man(a1-6)]Man
Summary of the method: as §1

[20] = biological target: Man(a1-2)Man(a1-3)[Man(a1-2)Man(a1-6)]Man(a1-6)[Man(a1-2)Man(a1-2)Man(a1-3)]Man
Summary of the method: as §1

[21] = biological target: Man(a1-2)Man(a1-3)[Man(a1-2)Man(a1-6)]Man(a1-6)[Man(a1-2)Man(a1-2)Man(a1-3)]Man(b1-4)GlcNAc(b1-4)GlcNAc
Summary of the method: as §1

[22] = biological target: Man(a1-2)Man(a1-3)[Man(a1-6)]Man(a1-6)[Man(a1-2)Man(a1-3)]Man(b1-4)GlcNAc(b1-4)GlcNAc
Summary of the method: as §1

[23] = biological target: Man(a1-2)Man(a1-6)[Man(a1-3)]Man(a1-6)[Man(a1-2)Man(a1-2)Man(a1-3)]Man
Summary of the method: as §1

[24] = biological target: Man(a1-2)Man(a1-6)[Man(a1-3)]Man(a1-6)[Man(a1-2)Man(a1-2)Man(a1-3)]Man(b1-4)GlcNAc(b1-4)GlcNAc
Summary of the method: as §1

Man(a1-3)[Man(a1-6)]Man = biological target: Man(a1-3)[Man(a1-6)]Man
Summary of the method: as §1

[25] = biological target: Man(a1-3)[Man(a1-6)]Man(a1-6)[Man(a1-2)Man(a1-3)]Man(b1-4)GlcNAc(b1-4)GlcNAc
Summary of the method: as §1

[26] = biological target: Man(a1-3)[Man(a1-6)]Man(a1-6)[Man(a1-3)]Man
Summary of the method: as §1

[27] = biological target: Man(a1-3)[Man(a1-6)]Man(a1-6)[Man(a1-3)]Man(b1-4)GlcNAc(b1-4)GlcNAc
Summary of the method: as §1

[28] = biological target: Man(a1-3)[Man(a1-6)]Man(b1-4)GlcNAc(b1-4)GlcNAc
Summary of the method: as §1

Man(a1-6)Man = biological target: Man(a1-6)Man
Summary of the method: as §1

Man(b1-4)GlcNAc = biological target: Man(b1-4)GlcNAc
Summary of the method: as §1

Neu5Ac(a2-3)Gal = biological target: Neu5Ac(a2-3)Gal
Summary of the method: as §1

[29] = biological target: Neu5Ac(a2-3)Gal(b1-3)GalNAc
Summary of the method: as §1

[30] = biological target: Neu5Ac(a2-3)Gal(b1-3)GalNAc(b1-3)Gal(a1-4)Gal(b1-4)Glc
Summary of the method: as §1

[31] = biological target: Neu5Ac(a2-3)Gal(b1-3)GalNAc(b1-3)Gal(b1-4)GlcNAc
Summary of the method: as §1

[32] = biological target: Neu5Ac(a2-3)Gal(b1-3)GalNAc(b1-4)[Neu5Ac(a2-3)]Gal(b1-4)Glc
Summary of the method: as §1

[33] = biological target: Neu5Ac(a2-3)Gal(b1-3)GalNAc6S
Summary of the method: as §1

[34] = biological target: Neu5Ac(a2-3)Gal(b1-3)GlcNAc
Summary of the method: as §1

[35] = biological target: Neu5Ac(a2-3)Gal(b1-3)GlcNAc(b1-3)Gal(b1-3)GlcNAc
Summary of the method: as §1

[36] = biological target: Neu5Ac(a2-3)Gal(b1-3)GlcNAc6S
Summary of the method: as §1

B1: CLC (Homo sapiens), Q9UBD9 (protein)
chain: MDLRAGDSWGMLACLCTVLWHLPAVPALNRTGDPGPGPSIQKTYDLTRYLEHQLRSLAGTYLNYLGPPFNEPDFNPPRLGAETLPRATVDLEVWRSLNDKLRLTQNYEAYSHLLCYLRGLNRQAATAELRRSLAHFCTSLQGLLGSIAGVMAALGYPLPQPLPGTEPTWTPGPAHSDFLQKMDDFWLLKELQTWLWRSAKDFNRLKKKMQPPAAAVTLHLGAHGF
glycan array binding signal (z-score) (GalNAc(b1-3)GalNAc): -0.626
glycan array binding signal (z-score) (GalNAc(b1-4)GlcNAc): -0.792
glycan array binding signal (z-score) (Glc(a1-4)Glc): -0.44
glycan array binding signal (z-score) (Glc(a1-6)Glc(a1-6)Glc): -0.369
glycan array binding signal (z-score) (Glc(b1-4)Glc): 0.137
glycan array binding signal (z-score) (Glc(b1-6)Glc): -0.076
glycan array binding signal (z-score) (GlcA(b1-3)Gal): -0.73
glycan array binding signal (z-score) (GlcA(b1-3)GlcNAc): 0.215
glycan array binding signal (z-score) (GlcA(b1-6)Gal): 0.323
glycan array binding signal (z-score) [1]: -0.142
glycan array binding signal (z-score) [2]: -0.417
glycan array binding signal (z-score) [3]: -0.911
glycan array binding signal (z-score) [4]: -0.797
glycan array binding signal (z-score) (GlcNAc(b1-3)Gal): 0.667
glycan array binding signal (z-score) [5]: -0.301
glycan array binding signal (z-score) (GlcNAc(b1-3)Gal(b1-4)Glc): 0.24
glycan array binding signal (z-score) [6]: 0.314
glycan array binding signal (z-score) [7]: -0.93
glycan array binding signal (z-score) (GlcNAc(b1-3)GalNAc): -0.653
glycan array binding signal (z-score) (GlcNAc(b1-3)Man): -0.485
glycan array binding signal (z-score) [8]: 0.341
glycan array binding signal (z-score) [9]: 2.01
glycan array binding signal (z-score) [10]: 0.535
glycan array binding signal (z-score) [11]: -0.918
glycan array binding signal (z-score) (GlcNAc(b1-4)GlcNAc): 0.598
glycan array binding signal (z-score) [12]: -0.403
glycan array binding signal (z-score) [13]: 1.02
glycan array binding signal (z-score) [14]: -0.685
glycan array binding signal (z-score) [15]: -0.555
glycan array binding signal (z-score) [16]: -0.283
glycan array binding signal (z-score) (GlcNAc(b1-6)GalNAc): -0.562
glycan array binding signal (z-score) (GlcNAc3Prop(b1-4)GlcNAc): 1.06
glycan array binding signal (z-score) (Kdn(a2-3)Gal(b1-3)GlcNAc): -0.192
glycan array binding signal (z-score) (Kdn(a2-3)Gal(b1-4)GlcNAc): 1.06
glycan array binding signal (z-score) [17]: 0.263
glycan array binding signal (z-score) [18]: 0.289
glycan array binding signal (z-score) (Man(a1-2)Man(a1-3)Man): -0.005
glycan array binding signal (z-score) [19]: 0.606
glycan array binding signal (z-score) [20]: -0.894
glycan array binding signal (z-score) [21]: 0.814
glycan array binding signal (z-score) [22]: -0.127
glycan array binding signal (z-score) [23]: -0.995
glycan array binding signal (z-score) [24]: 0.225
glycan array binding signal (z-score) (Man(a1-3)[Man(a1-6)]Man): -0.677
glycan array binding signal (z-score) [25]: 0.311
glycan array binding signal (z-score) [26]: -0.046
glycan array binding signal (z-score) [27]: 1.12
glycan array binding signal (z-score) [28]: -0.158
glycan array binding signal (z-score) (Man(a1-6)Man): 0.174
glycan array binding signal (z-score) (Man(b1-4)GlcNAc): -0.027
glycan array binding signal (z-score) (Neu5Ac(a2-3)Gal): 0.948
glycan array binding signal (z-score) [29]: -0.219
glycan array binding signal (z-score) [30]: -0.342
glycan array binding signal (z-score) [31]: 0.696
glycan array binding signal (z-score) [32]: 1.31
glycan array binding signal (z-score) [33]: -0.29
glycan array binding signal (z-score) [34]: -0.576
glycan array binding signal (z-score) [35]: -0.666
glycan array binding signal (z-score) [36]: 0.111
